Results published in the supplement of paper PMC4604168 (melanoma cell lines).
The list shows a part of the results. Repeats are few or missing, and single values can be far off.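 The apoptosis fraction was the count of cleaved-PARP antibody-stained nuclei relative to all DNA-stained nuclei, imaged in 1,536-well plates. Screening doses were set so most cells survived, and baseline and induced cleaved-PARP levels vary greatly across cell lines.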

Tests used:
Assay in all cases: cleaved PARP positive nuclei fraction relative to DMSO control; melanoma cells; higher = more apoptosis
Conditions in all cases: library dose: low library concentration; 72 h
[1] = test system: 501Mel
[2] = test system: A101D
[3] = test system: A2058
[4] = test system: A375
[5] = test system: C32
[6] = test system: CBRC008 (line from a melanoma biopsy)
[7] = test system: CBRC013 (line from a melanoma biopsy)
[8] = test system: CBRC014 (line from a melanoma biopsy)
[9] = test system: CBRC016 (line from a melanoma biopsy)
[10] = test system: CBRC017 (line from a melanoma biopsy)
[11] = test system: COLO792
[12] = test system: COLO800
[13] = test system: COLO829
[14] = test system: G361
[15] = test system: IPC-298
[16] = test system: IST-MEL1
[17] = test system: LB2518-MEL
[18] = test system: LOXIMVI
[19] = test system: MEL-HO
[20] = test system: CBRC034 (line from a melanoma biopsy)

SMILES	cleaved PARP positive nuclei fraction [1] [%]	cleaved PARP positive nuclei fraction [2] [%]	cleaved PARP positive nuclei fraction [3] [%]	cleaved PARP positive nuclei fraction [4] [%]	cleaved PARP positive nuclei fraction [5] [%]	cleaved PARP positive nuclei fraction [6] [%]	cleaved PARP positive nuclei fraction [7] [%]	cleaved PARP positive nuclei fraction [8] [%]	cleaved PARP positive nuclei fraction [9] [%]	cleaved PARP positive nuclei fraction [10] [%]	cleaved PARP positive nuclei fraction [11] [%]	cleaved PARP positive nuclei fraction [12] [%]	cleaved PARP positive nuclei fraction [13] [%]	cleaved PARP positive nuclei fraction [14] [%]	cleaved PARP positive nuclei fraction [15] [%]	cleaved PARP positive nuclei fraction [16] [%]	cleaved PARP positive nuclei fraction [17] [%]	cleaved PARP positive nuclei fraction [18] [%]	cleaved PARP positive nuclei fraction [19] [%]	cleaved PARP positive nuclei fraction [20] [%]
NCC(=O)Nc1ccc(-n2nc(C(F)(F)F)cc2-c2ccc3c(ccc4ccccc43)c2)cc1 + COc1cc2c(Oc3ccc4[nH]c(C)cc4c3F)ncnc2cc1OCCCN1CCCC1 [cediranib] (first compound 1 µM, partner dose 0.4 µM)	851	77.1	42.8	3910	72.8	213	125	96.8	119	101	171	220	116	111	175	48.9	88.8	117	144	
CCN(CC)CCCCNc1ncc2cc(-c3cc(OC)cc(OC)c3)c(NC(=O)NC(C)(C)C)nc2n1 + O=S(=O)(c1ccccc1)N(CC(F)(F)F)c1ccc(C(O)(C(F)(F)F)C(F)(F)F)cc1 [T0901317] (first compound 0.1 µM, partner dose 1.4 µM)	87.5	59.8	98.6	191	65.9		31.9	97.8	72.9	90	94	103	161	62.6	33.2	84.7	72.4	36.7		40.4
O=C(O)c1ccc(-c2c[nH]c3ncc(-c4ccccc4)cc23)cc1C1CCCC1 + CC(C)CCN1c2nc(Nc3cc(F)c(O)c(F)c3)ncc2N(C)C(=O)C1C [BID1870] (first compound 0.16 µM, partner dose 0.2 µM)	78.8	134	47.5	296	94.2		171	96.8	138	102	135	112	99.6	103	42	151	81.6	60.6		72.1
CCc1ccc(CCOc2ccc(CC3SC(=O)NC3=O)cc2)nc1 (configuration not stated) [pioglitazone] + Cc1cc([N+](=O)[O-])ccc1NS(=O)(=O)c1cc(Cl)ccc1Cl [FH535] (first compound 2 µM, partner dose 1 µM)	48.4	96.3	33.3	78	58.8		114	221	556	364	77.1	131	51	145	86	104	190	36.4		362
COC(=O)c1sccc1S(=O)(=O)Nc1ccc(Nc2ccccc2)cc1OC + Oc1nc(-c2ccc(C(F)(F)F)cc2)nc2c1CSCC2 [XAV939] (first compound 1 µM, partner dose 2 µM)	41.6	195	76	161	35.4		67.5	162	32.1	91.8	127	49.4	148	114	55.1	29.6	88.3	104		49.4
N#Cc1c(O)c2c(-c3ccc(-c4ccccc4O)cc3)csc2[nH]c1=O + CCCCCCCCCCCC1=C(O)C(=O)C=C(O)C1=O [Embelin] (first compound 2 µM, partner dose 1.2 µM)	141	95.6	67.5	112	109		44.6	95.3	55.7	74.7	72.5	73	84	87.8	50.5	38.1	71.3	949		103
CN(C)S(=O)(=O)c1ccc2c(c1)/C(=C/c1cc3c([nH]1)CCCC3)C(=O)N2 + NCC(=O)Nc1ccc(-n2nc(C(F)(F)F)cc2-c2ccc3c(ccc4ccccc43)c2)cc1 [OSU03012] (first compound 0.4 µM, partner dose 1 µM)	189	92.4	50.9	1490	207	214	67.9	113	138	109	27.7	105	124	108	197	56.9	76.8	146	76.5	
COc1cc2ncnc(Nc3ccc(Oc4ccccc4)cc3)c2cc1OC + CCCCCCCCCCCC1=C(O)C(=O)C=C(O)C1=O [Embelin] (first compound 2 µM, partner dose 1.2 µM)	81.3	67	58.3	110	102		164	75	42.1	80.1	81.2	93.3	71.8	104	70.8	151	61.3	36.4		41.6
CN(C)S(=O)(=O)c1ccc2c(c1)/C(=C/c1cc3c([nH]1)CCCC3)C(=O)N2 + CCc1ccc(CCOc2ccc(CC3SC(=O)NC3=O)cc2)nc1 [pioglitazone] (first compound 0.4 µM, partner dose 2 µM)	51.6	166	97.5	172	50.6		49.9	113	176	77.5	109	121	101	87.9	170	57.2	99.8	43.8		214
CN(NC(=O)CC(=O)NN(C)C(=S)c1ccccc1)C(=S)c1ccccc1 + Cn1cc(/C=C2\C(=O)Nc3cccnc32)c2ccccc21 [GW441756] (first compound 0.006 µM, partner dose 0.4 µM)	178	66.2	783	4200	264		344	462	154	388	81	259	236	247	82.9	130	94.3	50.6		57.3
N#Cc1c(O)c2c(-c3ccc(-c4ccccc4O)cc3)csc2[nH]c1=O + CCN(CC)CCCCNc1ncc2cc(-c3cc(OC)cc(OC)c3)c(NC(=O)NC(C)(C)C)nc2n1 [PD173074] (first compound 2 µM, partner dose 0.1 µM)	66.8	148	147	107	50		125	85.9	35.6	74.4	161	159	61.7	165	78.3	60.2	90	64.8		75.7
CN(C)S(=O)(=O)c1ccc2c(c1)/C(=C/c1cc3c([nH]1)CCCC3)C(=O)N2 + COc1cc2c(Oc3ccc4[nH]c(C)cc4c3F)ncnc2cc1OCCCN1CCCC1 [cediranib] (first compound 0.4 µM, partner dose 0.4 µM)	95.9	90.4	121	118	58.7	132	87.7	77.5	201	99.9	125	73.9	70.5	148	93.3	47	218	84.3	34.4	
CN(NC(=O)CC(=O)NN(C)C(=S)c1ccccc1)C(=S)c1ccccc1 + O=S(=O)(c1ccccc1)N(CC(F)(F)F)c1ccc(C(O)(C(F)(F)F)C(F)(F)F)cc1 [T0901317] (first compound 0.006 µM, partner dose 1.4 µM)	263	157	164	11000	229		56.9	423	93.9	122	105	623	175	76.3	146	59.5	245	136		85.1
O=C(O)c1ccc(-c2c[nH]c3ncc(-c4ccccc4)cc23)cc1C1CCCC1 + NCC(=O)Nc1ccc(-n2nc(C(F)(F)F)cc2-c2ccc3c(ccc4ccccc43)c2)cc1 [OSU03012] (first compound 0.16 µM, partner dose 1 µM)	1020	38.7	111	2860	36.8	274	120	95.7	230	139	235	136	128	57.1	71.6	112	86.7	20.3	143	
COc1ccc(COc2ccc(Cc3cnc(N)nc3N)cc2OC)cc1 + CCCCCCCCCCCC1=C(O)C(=O)C=C(O)C1=O [Embelin] (first compound 1 µM, partner dose 1.2 µM)	73.9	115	54.9	57	108		263	158	97.7	76.4	31.5	137	130	73.5	158	119	256	116		141
COc1ccc(-c2ccc3c(N4CCOCC4)nc(N4C[C@@H](C)O[C@@H](C)C4)nc3n2)cc1CO + O=C1NC(=O)/C(=C/c2ccc(-c3ccc(F)cc3O)o2)S1 [AS252424] (first compound 0.02 µM, partner dose 1 µM)	122	203	101	65.9	282		89.2	103	53.9	133	54.4	37.1	55.7	160	90.5	189	181	165		82.3
CN(C)S(=O)(=O)c1ccc2c(c1)/C(=C/c1cc3c([nH]1)CCCC3)C(=O)N2 + CN(NC(=O)CC(=O)NN(C)C(=S)c1ccccc1)C(=S)c1ccccc1 [STA4783] (first compound 0.4 µM, partner dose 0.006 µM)	620	182	171	4190	126	4820	147	647	408	244	179	84.3	107	131	96.3	658	145	87.5	58.9	
COc1cc(N2CCC(N3CCN(C)CC3)CC2)ccc1Nc1ncc(Cl)c(Nc2ccccc2S(=O)(=O)C(C)C)n1 + O=c1cc(-c2cccc3c2Sc2ccccc2S3)oc(N2CCOCC2)c1 [KU55933] (first compound 0.08 µM, partner dose 1 µM)	128	110	150	82.2	185		559	105	71.8	91.7	224	118	80.9	101	114	529	68.4	112		206
Cc1cc([N+](=O)[O-])ccc1NS(=O)(=O)c1cc(Cl)ccc1Cl + c1cc(-c2cnn3cc(-c4ccc(OCCN5CCCCC5)cc4)cnc23)ccn1 [Dorsomorphin] (first compound 1 µM, partner dose 0.4 µM)	29.5	242	102	840	172		99.1	219	1680	788	85.7	83.9	102	320	60.3	261	89.4	70		407

2 neighbouring records out of the list so far:
SMILES	cleaved PARP positive nuclei fraction [1] [%]	cleaved PARP positive nuclei fraction [2] [%]	cleaved PARP positive nuclei fraction [3] [%]	cleaved PARP positive nuclei fraction [4] [%]	cleaved PARP positive nuclei fraction [5] [%]	cleaved PARP positive nuclei fraction [6] [%]	cleaved PARP positive nuclei fraction [7] [%]	cleaved PARP positive nuclei fraction [8] [%]	cleaved PARP positive nuclei fraction [9] [%]	cleaved PARP positive nuclei fraction [10] [%]	cleaved PARP positive nuclei fraction [11] [%]	cleaved PARP positive nuclei fraction [12] [%]	cleaved PARP positive nuclei fraction [13] [%]	cleaved PARP positive nuclei fraction [14] [%]	cleaved PARP positive nuclei fraction [15] [%]	cleaved PARP positive nuclei fraction [16] [%]	cleaved PARP positive nuclei fraction [17] [%]	cleaved PARP positive nuclei fraction [18] [%]	cleaved PARP positive nuclei fraction [19] [%]	cleaved PARP positive nuclei fraction [20] [%]
O=C(O)c1ccc(-c2c[nH]c3ncc(-c4ccccc4)cc23)cc1C1CCCC1 + CC(C)CCN1c2nc(Nc3cc(F)c(O)c(F)c3)ncc2N(C)C(=O)C1C [BID1870] (first compound 0.16 µM, partner dose 0.2 µM)	78.8	134	47.5	296	94.2		171	96.8	138	102	135	112	99.6	103	42	151	81.6	60.6		72.1
CCc1ccc(CCOc2ccc(CC3SC(=O)NC3=O)cc2)nc1 (configuration not stated) [pioglitazone] + Cc1cc([N+](=O)[O-])ccc1NS(=O)(=O)c1cc(Cl)ccc1Cl [FH535] (first compound 2 µM, partner dose 1 µM)	48.4	96.3	33.3	78	58.8		114	221	556	364	77.1	131	51	145	86	104	190	36.4		362
